Measurements from paper PMC10253099.
No constants are given. Whether binding was seen depends on the method and setting. For some of these results: In cells and extracts the contact can be indirect. Some results given as binding are weak or reduced against the parent protein; the word gives no strength. Where a sequence is shown, tags or fusion partners need not be part of it.

Columns and labels:
[1] = molecular target: T1, MORF2-cYFP (MORF2 fused to the C-terminal fragment of YFP) (Arabidopsis thaliana) (UniProt O22793); experiment: split reporter; BiFC: nYFP (pSPYNE173) and cYFP (pSPYCE(M)) fusions co-transformed into Arabidopsis Col-0 mesophyll protoplasts, 16-20 h at 22 °C, confocal microscopy
T1 sequence: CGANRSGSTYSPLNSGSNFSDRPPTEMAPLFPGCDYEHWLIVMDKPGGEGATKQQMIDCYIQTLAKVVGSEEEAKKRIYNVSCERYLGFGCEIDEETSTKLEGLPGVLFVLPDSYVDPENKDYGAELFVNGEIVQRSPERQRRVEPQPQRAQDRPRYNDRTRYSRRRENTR

[2] = molecular target: T2, MORF9-cYFP (Arabidopsis thaliana) (UniProt Q9LPZ1); experiment: as above
T2 sequence: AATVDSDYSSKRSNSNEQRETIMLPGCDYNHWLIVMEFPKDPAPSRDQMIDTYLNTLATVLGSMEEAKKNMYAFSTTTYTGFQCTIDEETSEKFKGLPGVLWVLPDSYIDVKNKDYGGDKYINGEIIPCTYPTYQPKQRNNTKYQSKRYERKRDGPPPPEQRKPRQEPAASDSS

[3] = molecular target: T3, MORF8-cYFP (Arabidopsis thaliana) (UniProt Q9LKA5); experiment: as above
T3 sequence: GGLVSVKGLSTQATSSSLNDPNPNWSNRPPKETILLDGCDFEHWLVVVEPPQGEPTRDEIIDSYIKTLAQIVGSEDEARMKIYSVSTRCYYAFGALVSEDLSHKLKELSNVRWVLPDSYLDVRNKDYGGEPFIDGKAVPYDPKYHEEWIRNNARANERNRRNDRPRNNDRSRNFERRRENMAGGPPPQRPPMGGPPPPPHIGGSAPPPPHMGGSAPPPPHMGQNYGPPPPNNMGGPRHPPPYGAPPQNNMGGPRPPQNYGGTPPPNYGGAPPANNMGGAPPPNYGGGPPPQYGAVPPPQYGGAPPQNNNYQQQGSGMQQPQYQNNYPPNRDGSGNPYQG

[4] = molecular target: T4, ORRM1-cYFP (Arabidopsis thaliana) (UniProt Q8L440); experiment: as above
T4 sequence: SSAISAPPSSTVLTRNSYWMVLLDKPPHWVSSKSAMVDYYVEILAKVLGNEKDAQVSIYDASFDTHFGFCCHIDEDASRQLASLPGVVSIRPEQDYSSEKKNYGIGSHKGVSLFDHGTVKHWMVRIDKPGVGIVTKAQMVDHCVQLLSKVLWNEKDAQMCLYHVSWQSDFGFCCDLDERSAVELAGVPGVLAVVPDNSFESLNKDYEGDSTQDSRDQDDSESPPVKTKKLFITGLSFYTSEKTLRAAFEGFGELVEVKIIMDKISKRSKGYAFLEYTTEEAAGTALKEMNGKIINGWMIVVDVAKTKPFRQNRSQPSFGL

[5] = molecular target: T5, ORRM1-NLuc (Arabidopsis thaliana) (UniProt Q8L440); experiment: split reporter; firefly luciferase complementation imaging (LCI): NLuc and CLuc fusions co-expressed in tobacco leaves by Agrobacterium infiltration with P19, 60 h, 1 mM D-luciferin
T5 sequence: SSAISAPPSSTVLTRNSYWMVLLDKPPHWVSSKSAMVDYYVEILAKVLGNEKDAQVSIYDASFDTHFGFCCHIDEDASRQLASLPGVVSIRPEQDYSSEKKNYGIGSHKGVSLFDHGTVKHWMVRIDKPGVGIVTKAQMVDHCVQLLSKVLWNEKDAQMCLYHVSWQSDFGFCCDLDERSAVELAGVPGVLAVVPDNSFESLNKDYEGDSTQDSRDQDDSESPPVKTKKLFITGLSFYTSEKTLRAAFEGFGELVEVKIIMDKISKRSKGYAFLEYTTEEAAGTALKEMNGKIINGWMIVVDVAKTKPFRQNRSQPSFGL

[6] = molecular target: T6, MORF9-NLuc (Arabidopsis thaliana) (UniProt Q9LPZ1); experiment: as above
T6 sequence: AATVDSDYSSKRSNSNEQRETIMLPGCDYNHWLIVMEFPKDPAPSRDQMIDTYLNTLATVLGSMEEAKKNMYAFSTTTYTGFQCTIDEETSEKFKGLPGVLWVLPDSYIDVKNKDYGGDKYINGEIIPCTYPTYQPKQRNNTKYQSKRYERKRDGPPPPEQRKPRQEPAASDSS

[7] = molecular target: T7, MORF8-NLuc (Arabidopsis thaliana) (UniProt Q9LKA5); experiment: as above
T7 sequence: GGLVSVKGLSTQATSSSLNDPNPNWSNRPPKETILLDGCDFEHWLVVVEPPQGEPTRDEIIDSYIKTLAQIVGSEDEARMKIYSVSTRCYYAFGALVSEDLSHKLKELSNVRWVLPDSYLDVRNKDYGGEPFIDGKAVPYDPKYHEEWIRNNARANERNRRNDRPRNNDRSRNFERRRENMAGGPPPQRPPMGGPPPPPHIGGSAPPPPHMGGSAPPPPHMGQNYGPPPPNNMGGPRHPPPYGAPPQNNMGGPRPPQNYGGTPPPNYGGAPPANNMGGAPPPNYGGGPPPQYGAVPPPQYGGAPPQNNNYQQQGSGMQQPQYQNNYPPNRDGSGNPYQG

[8] = molecular target: T8, MORF2-NLuc (MORF2, N-terminal luciferase fragment fusion) (Arabidopsis thaliana) (UniProt O22793); experiment: as above
T8 sequence: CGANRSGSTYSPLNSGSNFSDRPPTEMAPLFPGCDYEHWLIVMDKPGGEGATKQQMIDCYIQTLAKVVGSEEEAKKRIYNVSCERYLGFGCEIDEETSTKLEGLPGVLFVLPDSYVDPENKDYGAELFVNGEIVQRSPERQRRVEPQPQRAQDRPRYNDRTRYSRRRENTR

[9] = molecular target: T9, OZ1, organelle zinc-finger 1 protein (GAL4 fusion for yeast two-hybrid) (Arabidopsis thaliana) (UniProt Q8S9K3); experiment: two-hybrid; Matchmaker Gold system, GAL4 BD (pGBKT7) and AD (pGADT7) fusions co-transformed into Y2HGold; growth and blue colour on SD/-Ade/-His/-Leu/-Trp/X-α-Gal, 30 °C, 5 days
T9 sequence: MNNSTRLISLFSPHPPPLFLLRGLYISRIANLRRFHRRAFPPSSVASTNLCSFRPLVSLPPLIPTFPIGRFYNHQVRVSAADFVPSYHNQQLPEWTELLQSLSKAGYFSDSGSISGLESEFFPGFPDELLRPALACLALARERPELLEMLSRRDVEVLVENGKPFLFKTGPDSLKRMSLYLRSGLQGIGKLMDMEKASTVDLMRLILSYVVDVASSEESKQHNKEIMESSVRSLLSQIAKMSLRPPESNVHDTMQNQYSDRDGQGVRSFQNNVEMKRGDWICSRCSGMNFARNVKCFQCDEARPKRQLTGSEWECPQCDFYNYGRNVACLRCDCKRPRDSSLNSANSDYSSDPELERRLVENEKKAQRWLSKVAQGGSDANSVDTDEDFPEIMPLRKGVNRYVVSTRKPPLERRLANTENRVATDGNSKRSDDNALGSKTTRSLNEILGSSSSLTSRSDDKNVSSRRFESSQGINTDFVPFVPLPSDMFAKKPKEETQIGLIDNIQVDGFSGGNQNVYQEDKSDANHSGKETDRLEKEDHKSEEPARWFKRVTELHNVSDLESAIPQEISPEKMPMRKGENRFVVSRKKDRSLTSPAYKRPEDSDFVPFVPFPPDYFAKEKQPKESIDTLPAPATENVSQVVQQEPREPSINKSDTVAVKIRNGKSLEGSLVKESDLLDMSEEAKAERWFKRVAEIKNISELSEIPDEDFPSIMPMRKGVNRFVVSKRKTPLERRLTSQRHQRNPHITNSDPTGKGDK

[10] = molecular target: T10, MORF9 (GAL4 fusion for yeast two-hybrid) (Arabidopsis thaliana) (UniProt Q9LPZ1); experiment: as above
T10 sequence: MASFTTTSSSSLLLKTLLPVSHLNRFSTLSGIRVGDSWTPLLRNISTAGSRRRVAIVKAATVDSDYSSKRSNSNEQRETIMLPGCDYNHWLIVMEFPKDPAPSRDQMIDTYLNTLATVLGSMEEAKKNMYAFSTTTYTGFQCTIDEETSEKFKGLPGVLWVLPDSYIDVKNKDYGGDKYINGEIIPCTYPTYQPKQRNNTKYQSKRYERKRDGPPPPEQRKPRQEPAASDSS

[11] = molecular target: T11, ORRM1 (GAL4 fusion for yeast two-hybrid) (Arabidopsis thaliana) (UniProt Q8L440); experiment: as above
T11 sequence: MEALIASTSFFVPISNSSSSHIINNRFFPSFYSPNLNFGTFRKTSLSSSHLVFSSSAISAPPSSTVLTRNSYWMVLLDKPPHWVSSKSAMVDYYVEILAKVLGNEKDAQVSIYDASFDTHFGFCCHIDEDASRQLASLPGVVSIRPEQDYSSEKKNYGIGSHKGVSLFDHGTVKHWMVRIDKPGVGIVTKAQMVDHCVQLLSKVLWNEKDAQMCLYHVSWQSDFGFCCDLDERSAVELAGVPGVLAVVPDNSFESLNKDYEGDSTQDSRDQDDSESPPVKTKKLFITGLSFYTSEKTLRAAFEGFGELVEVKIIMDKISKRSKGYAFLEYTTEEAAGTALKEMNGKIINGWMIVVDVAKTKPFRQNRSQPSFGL

[12] = molecular target: T12, MORF2 (GAL4 fusion for yeast two-hybrid) (Arabidopsis thaliana) (UniProt O22793); experiment: as above
T12 sequence: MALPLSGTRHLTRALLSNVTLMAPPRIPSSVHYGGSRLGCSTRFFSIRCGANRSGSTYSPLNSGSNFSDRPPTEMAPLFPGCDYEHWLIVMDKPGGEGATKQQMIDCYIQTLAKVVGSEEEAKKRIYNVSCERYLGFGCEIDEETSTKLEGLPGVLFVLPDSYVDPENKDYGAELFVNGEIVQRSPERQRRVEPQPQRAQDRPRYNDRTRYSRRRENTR

[13] = molecular target: T13, MORF8 (GAL4 fusion for yeast two-hybrid) (Arabidopsis thaliana) (UniProt Q9LKA5); experiment: as above
T13 sequence: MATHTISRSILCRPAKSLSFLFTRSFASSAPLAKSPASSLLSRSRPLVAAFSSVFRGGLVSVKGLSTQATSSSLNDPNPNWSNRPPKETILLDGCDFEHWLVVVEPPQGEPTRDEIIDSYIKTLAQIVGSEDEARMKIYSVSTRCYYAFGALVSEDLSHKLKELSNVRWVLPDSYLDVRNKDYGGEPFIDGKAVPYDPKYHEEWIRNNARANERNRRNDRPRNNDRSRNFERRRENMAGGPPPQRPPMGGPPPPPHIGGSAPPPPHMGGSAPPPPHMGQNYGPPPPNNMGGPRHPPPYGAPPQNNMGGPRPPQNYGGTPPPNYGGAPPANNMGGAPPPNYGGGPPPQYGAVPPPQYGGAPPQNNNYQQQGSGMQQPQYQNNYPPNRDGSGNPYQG

Measured: binding

B1: ATPC1-nYFP (ATPC1 fused to the N-terminal fragment of YFP) (protein, UniProt Q01908 51-373)
chain: ASLRELRDRIDSVKNTQKITEAMKLVAAAKVRRAQEAVVNGRPFSETLVEVLYNINEQLQTDDVDVPLTKVRPVKKVALVVVTGDRGLCGGFNNFIIKKAEARIKELKGLGLEYTVISVGKKGNSYFLRRPYIPVDKYLEAGTLPTAKEAQAVADDVFSLFISEEVDKVELLYTKFVSLVKSEPVIHTLLPLSPKGEICDINGTCVDAAEDEFFRLTTKEGKLTVERETFRTPTADFSPILQFEQDPVQILDALLPLYLNSQILRALQESLASELAARMSAMSSASDNASDLKKSLSMVYNRKRQAKITGEILEIVAGANAQV
binds: [1] | [2] | [3] | [4]

B2: ATPC1-CLuc (ATPC1, C-terminal luciferase fragment fusion) (protein, UniProt Q01908 51-373)
chain: ASLRELRDRIDSVKNTQKITEAMKLVAAAKVRRAQEAVVNGRPFSETLVEVLYNINEQLQTDDVDVPLTKVRPVKKVALVVVTGDRGLCGGFNNFIIKKAEARIKELKGLGLEYTVISVGKKGNSYFLRRPYIPVDKYLEAGTLPTAKEAQAVADDVFSLFISEEVDKVELLYTKFVSLVKSEPVIHTLLPLSPKGEICDINGTCVDAAEDEFFRLTTKEGKLTVERETFRTPTADFSPILQFEQDPVQILDALLPLYLNSQILRALQESLASELAARMSAMSSASDNASDLKKSLSMVYNRKRQAKITGEILEIVAGANAQV
binds: [5] | [6] | [7] | [8]

B3: ATPC1, the gamma subunit of ATP synthase in Arabidopsis chloroplasts (GAL4 fusion for yeast two-hybrid) (protein, UniProt Q01908 1-373)
chain: MACSNLTTMWVSSKPSLSADSSSLSFRSVLKCPTNTSSPPSRASSVSPLQASLRELRDRIDSVKNTQKITEAMKLVAAAKVRRAQEAVVNGRPFSETLVEVLYNINEQLQTDDVDVPLTKVRPVKKVALVVVTGDRGLCGGFNNFIIKKAEARIKELKGLGLEYTVISVGKKGNSYFLRRPYIPVDKYLEAGTLPTAKEAQAVADDVFSLFISEEVDKVELLYTKFVSLVKSEPVIHTLLPLSPKGEICDINGTCVDAAEDEFFRLTTKEGKLTVERETFRTPTADFSPILQFEQDPVQILDALLPLYLNSQILRALQESLASELAARMSAMSSASDNASDLKKSLSMVYNRKRQAKITGEILEIVAGANAQV
binds: [9] | [10] | [11] | [12] | [13]
